Experimental data taken from the supplement of paper PMC8256030.
Values joined by “and” are separate entries in the source; they are usually repeats but may differ in a detail not shown here. Identical values can stand only once. Some of the results follow. This data set is noisy: repeats of one test often differ as much as different tests do.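 HEK293T cells were given each compound shortly before transfection with a reporter in which red mCherry is followed by the SARS-CoV-2 frameshift element and then GFP in the −1 frame, so GFP appears only after frameshifting.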

The compounds below were run on HEK293T (assay: percent viability (nuclei count) relative to control; higher = more viable cells). Settings: 10 µM; 24 h.
Compound `NC(=O)Nc1ccc(S(=O)(=O)c2ccc(N)cc2)cc1` [amidapsone] has a percent viability of 113%.
`CCCNC(C)C(=O)Nc1c(C)csc1C(=O)OC` (stereo not given) [Articaine] was tested, and the percent viability was 302%.
Compound `CC(C)c1nc(N(C)S(C)(=O)=O)nc(-c2ccc(F)cc2)c1/C=C/[C@@H](O)C[C@@H](O)CC(=O)O` [Rosuvastatin] has a percent viability of 26.3%.
In the case of `CCCCC/C=C\C/C=C\C/C=C\CCCCC(=O)O` [gamolenic acid], the percent viability was 150%.
`OC[C@@H](O)[C@@H](O)[C@H](O)[C@H](O)CO` gave a percent viability of 145%.
For `CCCCCCn1c(=O)c2c(ncn2C)n(C)c1=O` [pentifylline], the percent viability was 101%.
`CCCCCCCCCCCCCCCCCCCCCCO` showed a percent viability of 192%.
Compound `CO[C@H]1C[C@H](O[C@H]2[C@H](C)[C@@H](O[C@@H]3O[C@H](C)C[C@H](N(C)C)[C@H]3O)[C@@H](C)C[C@@]3(CO3)C(=O)[C@H](C)[C@@H](O)[C@@H](C)[C@@H](C)OC(=O)[C@@H]2C)O[C@@H](C)[C@@H]1O` has a percent viability of 98.9%.
`CC[N+](CC)(CC(=O)Nc1c(C)cccc1C)Cc1ccccc1` [denatonium benzoate] was tested, and the percent viability was 241%.
Work on `CC1(C)S[C@@H]2[C@H](NC(=O)[C@H](N)c3ccccc3)C(=O)N2[C@H]1C(=O)O` [ampicillin] yielded a percent viability of 106%.
Compound `O=C(O[C@H]1CN2CCC1CC2)N1CCc2ccccc2[C@@H]1c1ccccc1` has a percent viability of 312%.
In the case of `C=C1CC[C@H](O)C/C1=C/C=C1\CCC[C@]2(C)[C@@H]([C@H](C)/C=C/[C@H](C)C(C)C)CC[C@@H]12` [Ergocalciferol], the percent viability was 202%.
Work on `C=C1CC[C@H](O)C/C1=C/C=C1\CCC[C@]2(C)[C@@H]([C@H](C)/C=C/[C@H](C)C(C)C)CC[C@@H]12` [ergocalciferol] yielded a percent viability of 314%.
Work on `Oc1ccc2ccccc2c1` yielded a percent viability of 415%.
`OCCN1CCN(CCCN2c3ccccc3Sc3ccc(Cl)cc32)CC1` [perphenazine] gave a percent viability of 423%.
With `N=C(N)NCc1ccc2c(c1)OCCO2` [guabenxan] the percent viability was 177%.
`C[C@H]1O[C@@H](O[C@H]2[C@@H](O)C[C@H](O[C@H]3[C@@H](O)C[C@H](O[C@H]4CC[C@@]5(C)[C@H](CC[C@@H]6[C@@H]5CC[C@]5(C)[C@@H](C7=CC(=O)OC7)CC[C@]65O)C4)O[C@@H]3C)O[C@@H]2C)C[C@H](O)[C@@H]1O` [Digitoxin] was tested, and the percent viability was 5.17%.
`CCn1cc(C(=O)O)c(=O)c2ccc(C)nc21` [nalidixic acid] was tested, and the percent viability was 175%.
In the case of `CC(=O)Oc1c(C)cc(OCC(O)CNC(C)C)c(C)c1C` (stereo not given) [metipranolol], the percent viability was 285%.
In the case of `CCOc1ccccc1OC(c1ccccc1)C1CNCCO1` (stereo not given) [reboxetine], the percent viability was 288%.
For `CC(C)=C/C(C)=N/Nc1nncc2ccccc12` [budralazine], the percent viability was 402%.
For `CC(CN1c2ccccc2Sc2ccccc21)N(C)C` (stereo not given) [promethazine], the percent viability was 252% and 166%.
`C=CCCCCCCCCC(=O)O` showed a percent viability of 398%.
Compound `O=C1CC(c2cccc(Br)c2)C(=O)N1` (stereo not given) [brosuximide] has a percent viability of 257%.
Work on `N#Cc1ccc2c(c1)N(CCCN1CCC(O)CC1)c1ccccc1S2` [periciazine] yielded a percent viability of 52.9%.
